From patent US12729225B2, “Non-canonical SWI/SNF complex and uses thereof” (Dana-Farber Cancer Institute, Inc., priority 2018, dated 2026)

Test system: mSWI/SNF complexes
Test: mSWI/SNF complex purification with HA-tagged baits and mass spectrometry (peptide counts)
Parameters: species or system human
[1] = 293_HA-BRD7 bait purification, mass spectrometry, total peptide count per identified protein
[2] = 293_HA-BRD7 bait purification, mass spectrometry, unique peptide count per identified protein

B1: SRRT (protein, UniProt Q9BXP5 2-876, looked up)
Serrate RNA effector molecule …: GDSDDEYDRRRRDKFRRERSDYDRSRERDERRRGDDWNDREWDRGRERRSRGEYRDYDRNRRERFSPPRHELSPPQKRMRRDWDEHSSDPYHSGYEMPYAGGGGGPTYGPPQPWGHPDVHIMQHHVLPIQARLGSIAEIDLGVPPPVMKTFKEFLLSLDDSVDETEAVKRYNDYKLDFRRQQMQDFFLAHKDEEWFRSKYHPDEVGKRRQEARGALQNRLRVFLSLMETGWFDNLLLDIDKADAIVKMLDAAVIKMEGGTENDLRILEQEEEEEQAGKPGEPSKKEEGRAGAGLGDGERKTNDKDEKKEDGKQAENDSSNDDKTKKSEGDGDKEEKKEDSEKEAKKSSKKRNRKHSGDDSFDEGSVSESESESESGQAEEEKEEAEEALKEKEKPKEEEWEKPKDAAGLECKPRPLHKTCSLFMRNIAPNISRAEIISLCKRYPGFMRVALSEPQPERRFFRRGWVTFDRSVNIKEICWNLQNIRLRECELSPGVNRDLTRRVRNINGITQHKQIVRNDIKLAAKLIHTLDDRTQLWASEPGTPPLPTSLPSQNPILKNITDYLIEEVSAEEEELLGSSGGAPPEEPPKEGNPAEINVERDEKLIKVLDKLLLYLRIVHSLDYYNTCEYPNEDEMPNRCGIIHVRGPMPPNRISHGEVLEWQKTFEEKLTPLLSVRESLSEEEAQKMGRKDPEQEVEKFVTSNTQELGKDKWLCPLSGKKFKGPEFVRKHIFNKHAEKIEEVKKEVAFFNNFLTDAKRPALPEIKPAQPPGPAQILPPGLTPGLPYPHQTPQGLMPYGQPRPPILGYGAGAVRPAVPTGGPPYPHAPYGAGRGNYDAFRGQGGYPGKPRNRMVRGDPRAIVEYRDLDAPDDVDFF
Molecule B1 has a Total [1] of 1 and a Unique [2] of 1.

B2: SLC25A11 (protein, UniProt Q02978 2-314, looked up)
Mitochondrial …: AATASAGAGGIDGKPRTSPKSVKFLFGGLAGMGATVFVQPLDLVKNRMQLSGEGAKTREYKTSFHALTSILKAEGLRGIYTGLSAGLLRQATYTTTRLGIYTVLFERLTGADGTPPGFLLKAVIGMTAGATGAFVGTPAEVALIRMTADGRLPADQRRGYKNVFNALIRITREEGVLTLWRGCIPTMARAVVVNAAQLASYSQSKQFLLDSGYFSDNILCHFCASMISGLVTTAASMPVDIAKTRIQNMRMIDGKPEYKNGLDVLFKVVRYEGFFSLWKGFTPYYARLGPHTVLTFIFLEQMNKAYKRLFLSG
Work on B2 yielded a Total (293_HA-BRD7: HA-BRD7 bait purification, total peptide count per co-purified protein) of 12, a Unique (293_HA-BRD7: HA-BRD7 bait purification, unique peptide count per co-purified protein) of 12 and a Total (293_HA-DPF2 purification, total peptides) of 1. It also gave a Unique (293_HA-DPF2 purification, unique peptides) of 1.

B3: ##LIPI (protein, UniProt Q6XZB0 16-460, looked up)
Lipase member I: DNKRPCLEFSQLSVKDSFRDLFIPRIETILMMYTRNNLNCAEPLFEQNNSLNVNFNTQKKTVWLIHGYRPVGSIPLWLQNFVRILLNEEDMNVIVVDWSRGATTFIYNRAVKNTRKVAVSLSVHIKNLLKHGASLDNFHFIGVSLGAHISGFVGKIFHGQLGRITGLDPAGPRFSRKPPYSRLDYTDAKFVDVIHSDSNGLGIQEPLGHIDFYPNGGNKQPGCPKSIFSGIQFIKCNHQRAVHLFMASLETNCNFISFPCRSYKDYKTSLCVDCDCFKEKSCPRLGYQAKLFKGVLKERMEGRPLRTTVFLDTSGTYPFCTYYFVLSIIVPDKTMMDGSFSFKLLNQLGMIEEPRLYEKNKPFYKLQEVKILAQFYNDFVNISSIGLTYFQSSNLQCSTCTYKIQSLMLKSLTYPERPPLCRYNIVLKDREEVFLNPNTCTPKNT
In the case of B3, the Total [1] is reported as 1 and the Unique [2] is reported as 1.

B4: DHCR7 (protein, UniProt Q9UBM7 1-475, looked up)
7-dehydrocholesterol reductase: MAAKSQPNIPKAKSLDGVTNDRTASQGQWGRAWEVDWFSLASVIFLLLFAPFIVYYFIMACDQYSCALTGPVVDIVTGHARLSDIWAKTPPITRKAAQLYTLWVTFQVLLYTSLPDFCHKFLPGYVGGIQEGAVTPAGVVNKYQINGLQAWLLTHLLWFANAHLLSWFSPTIIFDNWIPLLWCANILGYAVSTFAMVKGYFFPTSARDCKFTGNFFYNYMMGIEFNPRIGKWFDFKLFFNGRPGIVAWTLINLSFAAKQRELHSHVTNAMVLVNVLQAIYVIDFFWNETWYLKTIDICHDHFGWYLGWGDCVWLPYLYTLQGLYLVYHPVQLSTPHAVGVLLLGLVGYYIFRVANHQKDLFRRTDGRCLIWGRKPKVIECSYTSADGQRHHSKLLVSGFWGVARHFNYVGDLMGSLAYCLACGGGHLLPYFYIIYMAILLTHRCLRDEHRCASKYGRDWERYTAAVPYRLLPGIF
Work on B4 yielded a Total [1] of 1 and a Unique [2] of 1.

B5: EXOSC10 (protein, UniProt Q01780 1-885, looked up)
Exosome complex component 10: MAPPSTREPRVLSATSATKSDGEMVLPGFPDADSFVKFALGSVVAVTKASGGLPQFGDEYDFYRSFPGFQAFCETQGDRLLQCMSRVMQYHGCRSNIKDRSKVTELEDKFDLLVDANDVILERVGILLDEASGVNKNQQPVLPAGLQVPKTVVSSWNRKAAEYGKKAKSETFRLLHAKNIIRPQLKFREKIDNSNTPFLPKIFIKPNAQKPLPQALSKERRERPQDRPEDLDVPPALADFIHQQRTQQVEQDMFAHPYQYELNHFTPADAVLQKPQPQLYRPIEETPCHFISSLDELVELNEKLLNCQEFAVDLEHHSYRSFLGLTCLMQISTRTEDFIIDTLELRSDMYILNESLTDPAIVKVFHGADSDIEWLQKDFGLYVVNMFDTHQAARLLNLGRHSLDHLLKLYCNVDSNKQYQLADWRIRPLPEEMLSYARDDTHYLLYIYDKMRLEMWERGNGQPVQLQVVWQRSRDICLKKFIKPIFTDESYLELYRKQKKHLNTQQLTAFQLLFAWRDKTARREDESYGYVLPNHMMLKIAEELPKEPQGIIACCNPVPPLVRQQINEMHLLIQQAREMPLLKSEVAAGVKKSGPLPSAERLENVLFGPHDCSHAPPDGYPIIPTSGSVPVQKQASLFPDEKEDNLLGTTCLIATAVITLFNEPSAEDSKKGPLTVAQKKAQNIMESFENPFRMFLPSLGHRAPVSQAAKFDPSTKIYEISNRWKLAQVQVQKDSKEAVKKKAAEQTAAREQAKEACKAAAEQAISVRQQVVLENAAKKRERATSDPRTTEQKQEKKRLKISKKPKDPEPPEKEFTPYDYSQSDFKAFAGNSKSKVSSQFDPNKQTPSGKKCIAAKKIKQSVGNKSMSFPTGKSDRGFRYNWPQR
Work on B5 yielded a Total [1] of 1 and a Unique [2] of 1.

B6: PDE7B (protein, UniProt Q9NP56 1-450, looked up)
3',5'-cyclic-AMP …: MSCLMVERCGEILFENPDQNAKCVCMLGDIRLRGQTGVRAERRGSYPFIDFRLLNSTTYSGEIGTKKKVKRLLSFQRYFHASRLLRGIIPQAPLHLLDEDYLGQARHMLSKVGMWDFDIFLFDRLTNGNSLVTLLCHLFNTHGLIHHFKLDMVTLHRFLVMVQEDYHSQNPYHNAVHAADVTQAMHCYLKEPKLASFLTPLDIMLGLLAAAAHDVDHPGVNQPFLIKTNHHLANLYQNMSVLENHHWRSTIGMLRESRLLAHLPKEMTQDIEQQLGSLILATDINRQNEFLTRLKAHLHNKDLRLEDAQDRHFMLQIALKCADICNPCRIWEMSKQWSERVCEEFYRQGELEQKFELEISPLCNQQKDSIPSIQIGFMSYIVEPLFREWAHFTGNSTLSENMLGHLAHNKAQWKSLLPRQHRSRGSSGSGPDHDHAGQGTESEEQEGDSP
Molecule B6 has a Total [1] of 1 and a Unique [2] of 1.

B7: NCBP1 (protein, UniProt Q09161 1-790, looked up)
Nuclear cap-binding protein …: MSRRRHSDENDGGQPHKRRKTSDANETEDHLESLICKVGEKSACSLESNLEGLAGVLEADLPNYKSKILRLLCTVARLLPEKLTIYTTLVGLLNARNYNFGGEFVEAMIRQLKESLKANNYNEAVYLVRFLSDLVNCHVIAAPSMVAMFENFVSVTQEEDVPQVRRDWYVYAFLSSLPWVGKELYEKKDAEMDRIFANTESYLKRRQKTHVPMLQVWTADKPHPQEEYLDCLWAQIQKLKKDRWQERHILRPYLAFDSILCEALQHNLPPFTPPPHTEDSVYPMPRVIFRMFDYTDDPEGPVMPGSHSVERFVIEENLHCIIKSHWKERKTCAAQLVSYPGKNKIPLNYHIVEVIFAELFQLPAPPHIDVMYTTLLIELCKLQPGSLPQVLAQATEMLYMRLDTMNTTCVDRFINWFSHHLSNFQFRWSWEDWSDCLSQDPESPKPKFVREVLEKCMRLSYHQRILDIVPPTFSALCPANPTCIYKYGDESSNSLPGHSVALCLAVAFKSKATNDEIFSILKDVPNPNQDDDDDEGFSFNPLKIEVFVQTLLHLAAKSFSHSFSALAKFHEVFKTLAESDEGKLHVLRVMFEVWRNHPQMIAVLVDKMIRTQIVDCAAVANWIFSSELSRDFTRLFVWEILHSTIRKMNKHVLKIQKELEEAKEKLARQHKRRSDDDDRSSDRKDGVLEEQIERLQEKVESAQSEQKNLFLVIFQRFIMILTEHLVRCETDGTSVLTPWYKNCIERLQQIFLQHHQIIQQYMVTLENLLFTAELDPHILAVFQQFCALQA
B7 showed a Total [1] of 1 and a Unique [2] of 1.

B8: SELH (protein, UniProt Q8IZQ5 1-122, looked up)
Selenoprotein H: MAPRGRKRKAEAAVVAVAEKREKLANGGEGMEEATVVIEHCTSURVYGRNAAALSQALRLEAPELPVKVNPTKPRRGSFEVTLLRPDGSSAELWTGIKKGPPRKLKFPEPQEVVEELKKYLS
Molecule B8 has a Total [1] of 1 and a Unique [2] of 1.

B9: HYOU1 (protein, UniProt Q9Y4L1 33-999, looked up)
Hypoxia up-regulated protein 1: LAVMSVDLGSESMKVAIVKPGVPMEIVLNKESRRKTPVIVTLKENERFFGDSAASMAIKNPKATLRYFQHLLGKQADNPHVALYQARFPEHELTFDPQRQTVHFQISSQLQFSPEEVLGMVLNYSRSLAEDFAEQPIKDAVITVPVFFNQAERRAVLQAARMAGLKVLQLINDNTATALSYGVFRRKDINTTAQNIMFYDMGSGSTVCTIVTYQMVKTKEAGMQPQLQIRGVGFDRTLGGLEMELRLRERLAGLFNEQRKGQRAKDVRENPRAMAKLLREANRLKTVLSANADHMAQIEGLMDDVDFKAKVTRVEFEELCADLFERVPGPVQQALQSAEMSLDEIEQVILVGGATRVPRVQEVLLKAVGKEELGKNINADEAAAMGAVYQAAALSKAFKVKPFVVRDAVVYPILVEFTREVEEEPGIHSLKHNKRVLFSRMGPYPQRKVITFNRYSHDFNFHINYGDLGFLGPEDLRVFGSQNLTTVKLKGVGDSFKKYPDYESKGIKAHFNLDESGVLSLDRVESVFETLVEDSAEEESTLTKLGNTISSLFGGGTTPDAKENGTDTVQEEEESPAEGSKDEPGEQVELKEEAEAPVEDGSQPPPPEPKGDATPEGEKATEKENGDKSEAQKPSEKAEAGPEGVAPAPEGEKKQKPARKRRMVEEIGVELVVLDLPDLPEDKLAQSVQKLQDLTLRDLEKQEREKAANSLEAFIFETQDKLYQPEYQEVSTEEQREEISGKLSAASTWLEDEGVGATTVMLKEKLAELRKLCQGLFFRVEERKKWPERLSALDNLLNHSSMFLKGARLIPEMDQIFTEVEMTTLEKVINETWAWKNATLAEQAKLPATEKPVLLSKDIEAKMMALDREVQYLLNKAKFTKPRPRPKDKNGTRAEPPLNASASDQGEKVIPPAGQTEDAEPISEPEKVETGSEPGDTEPLELGGPGAEPEQKEQSTGQKRPLKNDEL
B9 showed a Total [1] of 1 and a Unique [2] of 1.
